This is an account of results in PMC11092868, “Mapping Novel Frataxin Mitochondrial Networks Through Protein- Protein Interactions” (Research Square, 2024).

No constants are given. Whether binding was seen depends on the method and setting.

The experiment concerns the target Peroxiredoxin 3, endogenous human (human (endogenous in A549, lymphoblasts and dermal fibroblasts)) (UniProt P30048). Nature of the experiment: condition: only with β-mercaptoethanol in Laemmli buffer; non-reducing SDS-PAGE and immunoblot after NEM alkylation; lysis in alkylation buffer with 100 mM N-ethylmaleimide and 10 ug/mL catalase; oxidized dimers against reduced monomers; with or without beta-mercaptoethanol in Laemmli buffer.

B1: Peroxiredoxin 3, endogenous human (natural protein, UniProt P30048 62-256, looked up)
chain: APAVTQHAPYFKGTAVVNGEFKDLSLDDFKGKYLVLFFYPLDFTFVCPTEIVAFSDKANEFHDVNCEVVAVSVDSHFSHLAWINTPRKNGGLGHMNIALLSDLTKQISRDYGVLLEGSGLALRGLFIIDPNGVIKHLSVNDLPVGRSVEETLRLVKAFQYVETHGEVCPANWTPDSPTIKPSPAASKEYFQKVNQ
notes: Peroxiredoxin 3, mitochondrial, human; also called Prdx3; PRDX3; source: endogenous: A549 cells (BioID); human lymphoblast lysate fractions (co-IP); human dermal fibroblast lysate (redox blot)
As to B1, the binding entry is on record as “no binding”.
